Reference: article PMC6303327
These are yes or no findings as the source states them, for the method shown. Some results given as binding are weak or reduced against the parent protein; the word gives no strength.

Sequences of proteins named here, by UniProt entry; tags and fusion partners are left off. A change or cut given only in a name is not applied to a line headed by its entry.
UniProt P22336: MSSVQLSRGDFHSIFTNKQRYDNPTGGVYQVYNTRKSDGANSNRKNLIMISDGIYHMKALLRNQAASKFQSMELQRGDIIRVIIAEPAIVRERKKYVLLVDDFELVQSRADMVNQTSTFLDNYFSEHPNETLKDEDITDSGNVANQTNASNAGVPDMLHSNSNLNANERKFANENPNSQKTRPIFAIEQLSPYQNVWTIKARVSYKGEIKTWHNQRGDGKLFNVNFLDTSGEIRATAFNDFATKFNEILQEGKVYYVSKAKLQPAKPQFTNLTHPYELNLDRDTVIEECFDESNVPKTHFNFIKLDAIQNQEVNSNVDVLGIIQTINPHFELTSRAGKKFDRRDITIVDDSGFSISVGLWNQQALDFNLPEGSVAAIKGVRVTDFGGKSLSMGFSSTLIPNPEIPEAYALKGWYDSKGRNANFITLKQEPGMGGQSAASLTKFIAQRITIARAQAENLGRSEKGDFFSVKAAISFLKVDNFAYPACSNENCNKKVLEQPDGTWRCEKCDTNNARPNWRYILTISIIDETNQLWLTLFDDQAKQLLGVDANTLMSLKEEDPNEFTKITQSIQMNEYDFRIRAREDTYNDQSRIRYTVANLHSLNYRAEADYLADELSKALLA
UniProt P26754: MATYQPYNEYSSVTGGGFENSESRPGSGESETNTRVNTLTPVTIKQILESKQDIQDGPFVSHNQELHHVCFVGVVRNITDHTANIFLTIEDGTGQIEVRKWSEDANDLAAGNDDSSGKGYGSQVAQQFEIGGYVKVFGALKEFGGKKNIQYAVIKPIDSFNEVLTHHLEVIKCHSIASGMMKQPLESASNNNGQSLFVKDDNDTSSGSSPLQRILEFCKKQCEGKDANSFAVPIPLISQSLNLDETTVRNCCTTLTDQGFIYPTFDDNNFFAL
UniProt P26755: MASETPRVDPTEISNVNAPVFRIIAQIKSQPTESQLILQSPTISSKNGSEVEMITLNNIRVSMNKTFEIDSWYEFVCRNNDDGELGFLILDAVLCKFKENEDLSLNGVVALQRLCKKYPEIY

Key:
[1] = target: Rfa1 S178D, full length, as subunit of recombinant RPA^S178D (S. cerevisiae) (UniProt P22336); assay: cryo-EM structure; ScRPA (WT or S178D) on dT100 ssDNA, complexes purified by SEC; 20 mM Tris-HCl, 150 mM NaCl, 1 mM DTT, pH 7.4; Tri-C at 4.7 Å, RPA dimer at 7.5 Å; both purified
[2] = target: Rfa1, full length, as subunit of recombinant ScRPA (S. cerevisiae) (UniProt P22336); assay: as above
[3] = target: Rfa1, full length, as subunit of recombinant ScRPA (S. cerevisiae) (UniProt P22336); assay: SEC-MALS; Apo-RPA on Superdex S200; 20 mM Tris-HCl pH 7.5, 150 mM NaCl, 0.5 mM TCEP, 25 °C; both purified
[4] = target: Rfa2, full length, as subunit of recombinant ScRPA (S. cerevisiae) (UniProt P26754); assay: cryo-EM structure; ScRPA (WT or S178D) on dT100 ssDNA, complexes purified by SEC; 20 mM Tris-HCl, 150 mM NaCl, 1 mM DTT, pH 7.4; Tri-C at 4.7 Å, RPA dimer at 7.5 Å; both purified

Row | binding [1] | binding [2] | binding [3] | binding [4] | Substance
1 | binds | binds | binds |  | Rfa2, full length, as subunit of recombinant ScRPA (from UniProt P26754 1-273)
2 | binds | binds | binds | binds | Rfa3, full length, as subunit of recombinant ScRPA (from UniProt P26755 1-122)
